Values of other authors in patent US20080003603A1, “HUMAN MELANOMA MUTATION” (priority 2006, published 2008).
At least one structure is not confirmed: it was looked up by name or label, or the drawing left a doubt.

Tested on: malignant melanoma
Conditions: malignant melanoma patients

For CN(C)/N=N/c1[nH]cnc1C(N)=O [dacarbazine], the response rates is given as “around 20%”.
